Earlier results, collected in patent US7361683B2, “Paclitaxel aqueous injection solution and methods for preparing the same” (Yung Shin Pharm. Ind., Co., Ltd, priority 2004, dated 2008).

solubility in water: less than 0.01 mg/mL
Structure (SMILES): CC(=O)O[C@H]1C(=O)[C@@]2(C)[C@H]([C@H](OC(=O)c3ccccc3)[C@]3(O)C[C@H](OC(=O)[C@H](O)[C@@H](NC(=O)c4ccccc4)c4ccccc4)C(C)=C1C3(C)C)[C@]1(OC(C)=O)CO[C@@H]1C[C@@H]2O [Paclitaxel, 5β-20-Epoxy-1,2α,4,7β,10β,13α-hexahydroxytax-11-en-9-on,4,10 diacetate 2-benzate 13-ester with (2R,3S)-N-benzoyl-3-phenylisoserine]
